# Measured values reported in PubChem BioAssay AID1487 (National Center for Advancing Translational Sciences (NCATS), 2009).
# The other results are listed elsewhere or left out. Shown are side measurements of this screen, not its main read-out; they come without a call. Compounds called inactive in the main read-out are mostly missing here. Potencies come from curve fits of mixed quality, noted in brackets.
# Test: qHTS Assay for Modulators of Lamin A Splicing
# Conditions: HeLa LMNA splicing GFP/RFP minigene ratio, 48 h
# Procedure, shortened: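 Read-out is the ratio of GFP to DsRed2 object intensity, acquired by 488 nm laser-scanning cytometry on HeLa lamin A-EGFP minigene reporter cells. Compound incubation 48 hrs at 37 °C in Opti-MEM with 2% FBS; DMSO 0.5% final.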
# [1] = measured here: GFP splicing reporter channel
# [2] = measured here: RFP viability control channel
SMILES,AC50 [1],AC50 [2]
O=C(Nc1nccs1)c1ccccn1,"15.8 µM [rising, single point]",–
CC(=O)Nc1ccc(S(=O)(=O)N2CCN(c3nc(NC4CCCC4)c4ccccc4n3)CC2)cc1,"28.2 µM [falling, single point]","35.5 µM [falling, single point]"
COc1ccc(S(=O)(=O)NCCc2sc(-c3cccnc3)nc2C)cc1OC,"6.31 µM [falling, single point]",–
CCOc1nc(Nc2ccc(OC)c(Cl)c2)nc(OCC)n1,"35.5 µM [rising, single point]","31.6 µM [rising, single point]"
O=C(CSc1nc(-c2ccco2)cc(C(F)(F)F)n1)Nc1ccc(C(=O)N2CCCCC2)cc1,–,"3.16 µM [rising, full curve]"
CN(CCCC(=O)Nc1ccncc1)S(=O)(=O)c1ccc(Cl)cc1,"1.26 µM [rising, full curve]","5.01 µM [rising, partial curve]"
O=C(O)c1ccc(-c2ccc(/C=C3\NC(=O)N(Cc4ccc(Cl)cc4)C3=O)o2)cc1Cl,"5.01 µM [falling, single point]","2.82 µM [falling, partial curve, poor fit]"
COc1ccc(CCNC(=O)Cc2ccc(OCc3ccccc3)c(OC)c2[N+](=O)[O-])cc1OCc1ccccc1,–,"11.2 µM [rising, partial curve]"
CCN(CC)C(=O)c1sc2c(c1C)c(=O)n(CCc1ccccc1)c(=O)n2Cc1ccc(C)cc1,–,"31.6 µM [rising, single point]"
CCOc1cc2c(cc1OCC)C(CC(=O)OC)N(C(=O)Nc1cc(OC)ccc1OC)CC2 (centres undefined),–,"2.51 µM [falling, partial curve, poor fit]"
CCOC(=O)c1ccc(N)cc1,"8.91 µM [rising, single point]","7.94 µM [rising, partial curve, poor fit]"
CCOc1ccccc1CN1CCN(C2CCSCC2)CC1CCO (centres undefined),"10 µM [rising, partial curve, poor fit]","20 µM [rising, partial curve, poor fit]"
COC(=O)c1ccc(N=Cc2c(C(F)(F)F)[nH]n(C)c2=O)cc1,–,"0.794 µM [falling, partial curve, poor fit]"
Oc1ccc(Cn2ccnc2)c2cccnc12,"6.31 µM [falling, partial curve]","11.2 µM [falling, partial curve]"
COc1ccccc1Nc1nc(-c2ccccc2)nc2ccccc12,"0.2 µM [rising, full curve, poor fit]","5.62 µM [rising, partial curve, poor fit]"
NC(=O)c1cc[n+](CC2=C(C(=O)O)N3C(=O)[C@@H](NC(=O)[C@H](c4ccccc4)S(=O)(=O)[O-])[C@@H]3SC2)cc1,–,"0.631 µM [falling, full curve, poor fit]"

# As a short view, some entries already given:
SMILES,AC50 [1],AC50 [2]
CCOc1cc2c(cc1OCC)C(CC(=O)OC)N(C(=O)Nc1cc(OC)ccc1OC)CC2 (centres undefined),–,"2.51 µM [falling, partial curve, poor fit]"
CCOC(=O)c1ccc(N)cc1,"8.91 µM [rising, single point]","7.94 µM [rising, partial curve, poor fit]"

# (cont.)

SMILES,AC50 [1],AC50 [2]
CNCc1cc(Br)c(OCC(=O)Nc2ccccc2OC)c(OC)c1,"35.5 µM [falling, single point]",–
O=C(c1noc2c1CCCCC2)N1CCN(c2cccc(Cl)c2)CC1,"10 µM [falling, partial curve]","0.0178 µM [falling, full curve, poor fit]"
COc1ccccc1N1CCN(C(=O)C(C)N(c2ccc(C)c(C)c2)S(C)(=O)=O)CC1 (centres undefined),"35.5 µM [rising, single point]","35.5 µM [rising, single point]"
Cc1ccc(-c2nc(NCc3ccco3)c3ccccc3n2)cc1,–,"17.8 µM [rising, partial curve]"
Cc1c(C(=O)N2CC(C)OC(C)C2)sc2nc(-c3ccccc3)cn12 (centres undefined),"12.6 µM [rising, partial curve]","20 µM [rising, partial curve]"
COc1ccc(NC(=O)C2CCN(C3=NS(=O)(=O)C(c4ccc(C)c(C)c4)=C3C)CC2)c(OC)c1,"8.91 µM [falling, partial curve, poor fit]","3.98 µM [falling, full curve, poor fit]"
O=C(COc1ccc(Cl)cc1)Nc1nc(-c2cccs2)cs1,"22.4 µM [rising, single point]","31.6 µM [rising, single point]"
Cc1cccc(S(=O)(=O)NNC(=O)c2sc(C)nc2C)c1,–,"14.1 µM [rising, single point]"
C=CCn1c(=O)c2c(nc(-c3ccc(S(=O)(=O)O)cc3)n2C)n(C)c1=O,"5.62 µM [falling, partial curve, poor fit]","0.158 µM [rising, full curve, poor fit]"
COc1ccc(C(=O)n2c(C)c(CCO)c(=O)n2C)cc1,–,"0.00282 µM [falling, full curve, poor fit]"
Cc1onc(-c2ccccc2)c1C(=O)Nc1cc(C(F)(F)F)ccc1N1CCOCC1,"35.5 µM [falling, single point]","5.62 µM [rising, single point]"
O=C(c1cc2ccc3cccnc3c2[nH]1)N1CCCCC1,"15.8 µM [falling, partial curve]","20 µM [falling, partial curve, poor fit]"
CCN(CC)c1ccc(S(=O)(=O)N2CCOCC2)cc1NS(C)(=O)=O,"0.0316 µM [falling, full curve, poor fit]",–
Cc1nc(C)c(C(=O)N/N=C/c2ccco2)s1,"6.31 µM [falling, single point]","0.0562 µM [falling, partial curve, poor fit]"
CCOC(=O)c1c(C)[nH]c(C)c1C(=O)COC(=O)c1ccc(OC)c(OC)c1,–,"7.08 µM [rising, partial curve]"
Cc1nnsc1C(=O)Nc1cccc(Cl)c1C,"0.794 µM [rising, full curve, poor fit]",–
